{"source": "paper PMC6294567", "about": "“The C-terminal D/E-rich domain of MBD3 is a putative Z-DNA mimic that competes for Zα DNA-binding activity” (Nucleic Acids Research, 2018)", "key": {"[1]": {"target": "FLAG-MBD3 variant with a truncation of the DE-rich domain (human)", "experiment": "co-IP; FLAG-MBD3 or truncation mutants expressed in 293F cells, 48 h; lysate (0.3% NP-40, Benzonase) on anti-FLAG M2 affinity gel overnight at 4°C, FLAG peptide elution; blot with anti-ADAR1"}, "[2]": {"target": "FLAG-MBD3 variant with a truncation of the MBD domain (human)", "experiment": "co-IP; FLAG-MBD3 or truncation mutants expressed in 293F cells, 48 h; lysate (0.3% NP-40, Benzonase) on anti-FLAG M2 affinity gel overnight at 4°C, FLAG peptide elution; blot with anti-ADAR1"}}, "note": "Results are given in words; binding and its absence hold for the method and conditions named. Binding seen in cells or lysates may run through a third protein. Binding calls can cover weak binding; strength is not graded here.", "data": [{"binder": "endogenous ADAR1 (adenosine deaminase acting on RNA), isoform not named in the results (protein, UniProt P55265 1-1226) MNPRQGYSLSGYYTHPFQGYEHRQLRYQQPGPGSSPSSFLLKQIEFLKGQLPEAPVIGKQTPSLPPSLPGLRPRFPVLLASSTRGRQVDIRGVPRGVHLRSQGLQRGFQHPSPRGRSLPQRGVDCLSSHFQELSIYQDQEQRILKFLEELGEGKATTAHDLSGKLGTPKKEINRVLYSLAKKGKLQKEAGTPPLWKIAVSTQAWNQHSGVVRPDGHSQGAPNSDPSLEPEDRNSTSVSEDLLEPFIAVSAQAWNQHSGVVRPDSHSQGSPNSDPGLEPEDSNSTSALEDPLEFLDMAEIKEKICDYLFNVSDSSALNLAKNIGLTKARDINAVLIDMERQGDVYRQGTTPPIWHLTDKKRERMQIKRNTNSVPETAPAAIPETKRNAEFLTCNIPTSNASNNMVTTEKVENGQEPVIKLENRQEARPEPARLKPPVHYNGPSKAGYVDFENGQWATDDIPDDLNSIRAAPGEFRAIMEMPSFYSHGLPRCSPYKKLTECQLKNPISGLLEYAQFASQTCEFNMIEQSGPPHEPRFKFQVVINGREFPPAEAGSKKVAKQDAAMKAMTILLEEAKAKDSGKSEESSHYSTEKESEKTAESQTPTPSATSFFSGKSPVTTLLECMHKLGNSCEFRLLSKEGPAHEPKFQYCVAVGAQTFPSVSAPSKKVAKQMAAEEAMKALHGEATNSMASDNQPEGMISESLDNLESMMPNKVRKIGELVRYLNTNPVGGLLEYARSHGFAAEFKLVDQSGPPHEPKFVYQAKVGGRWFPAVCAHSKKQGKQEAADAALRVLIGENEKAERMGFTEVTPVTGASLRRTMLLLSRSPEAQPKTLPLTGSTFHDQIAMLSHRCFNTLTNSFQPSLLGRKILAAIIMKKDSEDMGVVVSLGTGNRCVKGDSLSLKGETVNDCHAEIISRRGFIRFLYSELMKYNSQTAKDSIFEPAKGGEKLQIKKTVSFHLYISTAPCGDGALFDKSCSDRAMESTESRHYPVFENPKQGKLRTKVENGEGTIPVESSDIVPTWDGIRLGERLRTMSCSDKILRWNVLGLQGALLTHFLQPIYLKSVTLGYLFSQGHLTRAICCRVTRDGSAFEDGLRHPFIVNHPKVGRVSIYDSKRQSGKTKETSVNWCLADGYDLEILDGTRGTVDGPRNELSRVSKKNIFLLFKKLCSFRYRRDLLRLSYGEAKKAARDYETAKNYFKKGLKDMGYGNWISKPQEEKNFYLCPV", "values": [{"measurement": "binding", "setting": "[1]", "result": "binds"}, {"measurement": "binding", "setting": "[2]", "result": "binds"}]}]}
